Source: patent EP4772186A1, “USE AND COMPOSITION OF POSTBIOTIC OF LACTOBACILLUS PARACASEI ET-22” (Inner Mongolia Yili Industrial Group Co., Ltd., priority 2023, dated 2026)
For at least one compound, name, drawing or mass did not settle the structure.

Legend:
[1] = system: halitosis virulence factors, including cdl, fadA, mgl, and gtfb; test: RT-PCR of virulence factors in multi-species biofilm; type: cell-based; settings: compared with CK group, 2^-△△CT method
Protocol: 100 µl of saliva was added to a 24-well plate, then 100 µl of the corresponding concentration solution was added respectively to the experimental groups, and finally 800 µl of SHI medium was added. The plate was placed in an anaerobic box and cultured anaerobically at 37°C for 10 hours. Then, the supernatant was discarded, and the multi-species biofilm adhered to the well plate was obtained. After discarding the supernatant from the incubated biofilm, the biofilm adhered to the bottom of the well plate was re-suspended with sterile water by pipetting, transferred to a 1.5 ml centrifuge tube, and stored until gene sequencing was performed.
This example evaluated the effects of lysate, NAD, 2-hydroxy-3-phenylpropionic acid, polypeptide GP(Hyp)GAG, and peptidoglycan on halitosis virulence factors, including cdl, fadA, mgl, and gtfb. The gene cdl can regulate the expression of L-cysteine […], which can catalyze the degradation of protein substrate to produce VSC, thereby causing halitosis. Fusobacterium nucleatum secretes an amyloid-like adhesin (fadA) via the fap2-like autotransporter protein to enhance its virulence. […]
After the sample RNA was reverse-transcribing into cDNA, RT-PCR reaction was performed to detect biofilm-related virulence factors. Experimental results were calculated using the 2^-△△CT method. […]

[2] = system: halitosis-causing pathogenic bacteria; test: in vitro oral biofilm model, sequencing: relative abundance of pathogenic bacteria; type: cell-based; settings: compared with CK group; multi-species biofilm, 37°C 10 hours
[3] = system: indole, hexanoic acid, and propanoic acid; test: SPME-GC-MS of characteristic flavor compounds; type: cell-based, halitosis subjects (saliva)
Protocol: Fresh saliva was collected from 10 halitosis subjects (Halimeter index >120). Subjects were required not to consume any food or drink for 2 hours before donating saliva. Saliva was directly spat into a saliva collection tube, 5 ml per person, and mixed. The mixture was centrifuged at 4500 rpm for 10 minutes, and the supernatant was collected, aliquoted, and stored at -80°C for subsequent experimental studies.
(§1) Lysate group: In a headspace vial, 100 µl of saliva was added first, followed by separate addition of ET-22 viable bacteria (1.0×10^9 CFU/ml), ET-22 heat-inactivated bacterial cells (obtained by inactivating viable bacteria at 1.0×10^9 CFU/ml), and lysate (obtained by inactivating and then filtering viable bacteria at 1.0×10^9 CFU/ml), each at 100µl. Then, 800 µl of SHI medium was added. After filling with nitrogen, anaerobic cultivation was performed for 10 hours for loading on machine, and then SPME-GC-MS was used to test the change in content of volatile organic compound.
as §1, with “NAD group:” for “Lysate group:”, “by the” for “by”, “by heat-inactivating” for “by inactivating”, “and NAD (100 µg/ml),” for “and lysate (obtained by inactivating and then filtering viable bacteria at 1.0×10^9 CFU/ml),”, “machine,” for “machine, and”, “the changes” for “the change”
as §1, with “2-hydroxy-3-phenylpropionic acid group:” for “Lysate group:”, “by the” for “by”, “by heat-inactivating” for “by inactivating”, “and 2-hydroxy-3-phenylpropionic acid (100 µg/ml),” for “and lysate (obtained by inactivating and then filtering viable bacteria at 1.0×10^9 CFU/ml),”, “the changes” for “the change”
as §1, with “GP(HYP)GAG group:” for “Lysate group:”, “by the” for “by”, “by heat-inactivating” for “by inactivating”, “and GP(HYP)GAG (100 µg/ml),” for “and lysate (obtained by inactivating and then filtering viable bacteria at 1.0×10^9 CFU/ml),”, “the changes” for “the change”
Peptidoglycan group: In a headspace vial, 100 µl of saliva was added first, followed by separate addition of ET-22 viable bacteria (1.0×10^9 CFU/ml), ET-22 heat-inactivated bacterial cells (same as Example 1), and peptidoglycan (same as Example 1), each at 100µl. Then, 800 µl of SHI medium was added. After filling with nitrogen, anaerobic cultivation was performed for 10 hours for loading on machine, and then SPME-GC-MS was used to test the changes in content of volatile organic compound.
Helium was used as a carrier gas, with a rate remaining at 1.1 mL min-1. The injector temperature was set at 250°C. Oven temperature program was as follows: holding at 40°C for 1 min, then ramping to 120°C at a rate of 8°C/min, followed by increasing to 230°C at a rate of 5°C/min and holding for 10 minutes. The mass spectrometer was operated in electron ionization (EI) mode, with ion source temperature of 230°C, interface temperature of 200°C, and M/Z scan range of 30-400. To identify specific compounds, their mass spectra were compared with those of true compounds given in the NIST 17 database (V.05). The minimum matching quality for forward and reverse matches was 75/100. The flavor characteristic of each compound was determined based on data from the Good Scents Company Information System (http://www.thegoodscentscompany.com). […]

[4] = pure components 100 µg/ml, others from 1.0×10^9 CFU/ml, 10 hours
[5] = relative to ET-22 viable bacteria and heat-inactivated bacteria

Compound: NC(=O)c1ccc[n+]([C@@H]2O[C@H](COP(=O)([O-])OP(=O)(O)OC[C@H]3O[C@@H](n4cnc5c(N)ncnc54)[C@H](O)[C@@H]3O)[C@@H](O)[C@H]2O)c1 [NAD, Nicotinamide adenine dinucleotide (NAD)]
- expression of virulence factors (cdl, fadA, mgl, gtfb) [1]: not obvious
- growth (relative abundance) of halitosis-causing pathogenic bacteria [2]: not obvious
- hexanoic acid concentration [3, 4]: significantly decrease
- indole concentration [3, 4]: significantly decrease
- propanoic acid concentration [3, 4]: significantly decrease
- intervention effect on hexanoic acid [3, 5]: better
- intervention effect on indole [3, 5]: better
- intervention effect on propanoic acid [3, 5]: better
